PubChem BioAssay AID1053209, Peter MacCallum Cancer Centre | 2014

Assay: 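Knock-downs that sensitise mouse osteosarcoma cells to doxorubicin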 (follow-up of hits)
Cells: mouse primary osteosarcoma cells
Knock-down reagent: single siRNA against mouse genes, 25 nM (text also states 40 nM)
Time to read-out: about 120 h (48 h before drug, then 72 h with drug)
Treatment: doxorubicin 100 nM (about IC30-40), added 48 h after transfection, for 72 h
Detection: 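ATP-based luminescent viability, with or without doxorubicin, relative to non-targeting control NT1, mean of two replicates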
Reading the numbers: viability with doxorubicin, vs NT1: higher = more viable cells under doxorubicin; viability ratio, doxorubicin over no drug: higher = less sensitisation to doxorubicin; viability without drug, vs NT1: higher = more viable cells without drug
Rule for the call: 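Active when doxorubicin viability is at most 0.7 of NT1 and drug-free viability lies between 0.7 and 1.1, class LC dox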
The deposit covers about 1,580 reagents; this is an unselected part. 207 of all reagents (13%) count as active. 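Rows are single siRNAs; four siRNAs per gene were tested, a gene counting as confirmed only when at least two agree.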 The numbers tell different reagents against one gene apart.

| gene symbol | siRNA no. | combined effect class | viability with doxorubicin, vs NT1 | viability ratio, doxorubicin over no drug | viability without drug, vs NT1 | Call |
| --- | --- | --- | --- | --- | --- | --- |
| Rpl13a | 1 | low viability with and without drug | 0.2 | 1 | 0.2 | inactive |
| Rpl13a | 2 | low viability with and without drug | 0.32 | 0.67 | 0.48 | inactive |
| Rpl13a | 3 | low viability with and without drug | 0.3 | 0.81 | 0.37 | inactive |
| Rpl13a | 4 | low viability with and without drug | 0.32 | 0.58 | 0.55 | inactive |
| Usp4 | 1 | low viability only with doxorubicin; normal without drug | 0.64 | 0.71 | 0.9 | active |
| Usp4 | 2 | normal viability with and without drug | 1.04 | 1.01 | 1.03 | inactive |
| Usp4 | 3 | high viability only without drug | 1.04 | 0.92 | 1.13 | inactive |
| Usp4 | 4 | normal viability with and without drug | 0.82 | 0.86 | 0.95 | inactive |
| Nup214 | 1 | normal viability with and without drug | 0.74 | 0.92 | 0.8 | inactive |
| Nup214 | 2 | low viability with and without drug | 0.52 | 0.87 | 0.6 | inactive |
| Nup214 | 3 | low viability with and without drug | 0.55 | 0.89 | 0.62 | inactive |
| Nup214 | 4 | low viability with and without drug | 0.6 | 0.88 | 0.68 | inactive |
| Chmp4b | 1 | low viability only with doxorubicin; normal without drug | 0.33 | 0.43 | 0.77 | active |
| Chmp4b | 2 | normal viability with and without drug | 0.97 | 0.99 | 0.98 | inactive |
| Chmp4b | 3 | low viability only with doxorubicin; normal without drug | 0.25 | 0.32 | 0.78 | active |
| Chmp4b | 4 | low viability only with doxorubicin; normal without drug | 0.44 | 0.52 | 0.84 | active |
| Ap5z1 | 1 | normal viability with and without drug | 0.83 | 0.84 | 0.99 | inactive |
| Ap5z1 | 2 | low viability only with doxorubicin; normal without drug | 0.53 | 0.63 | 0.84 | active |
| Ap5z1 | 3 | normal viability with and without drug | 0.98 | 1.04 | 0.94 | inactive |
| Ap5z1 | 4 | normal viability with and without drug | 1.04 | 0.98 | 1.06 | inactive |
| Psmb1 | 1 | low viability with and without drug | 0.52 | 0.96 | 0.54 | inactive |
| Psmb1 | 2 | low viability with and without drug | 0.42 | 0.7 | 0.6 | inactive |
| Psmb1 | 3 | low viability with and without drug | 0.14 | 0.54 | 0.26 | inactive |
| Psmb1 | 4 | low viability with and without drug | 0.08 | 0.36 | 0.22 | inactive |
| Sf3b1 | 1 | low viability only with doxorubicin; normal without drug | 0.49 | 0.56 | 0.88 | active |
| Sf3b1 | 2 | low viability only with doxorubicin; normal without drug | 0.55 | 0.59 | 0.94 | active |
| Sf3b1 | 3 | low viability with and without drug | 0.1 | 0.2 | 0.49 | inactive |
| Sf3b1 | 4 | low viability with and without drug | 0.09 | 0.35 | 0.26 | inactive |
| Cela1 | 1 | low viability only with doxorubicin; normal without drug | 0.34 | 0.43 | 0.79 | active |
| Cela1 | 2 | low viability only with doxorubicin; normal without drug | 0.68 | 0.72 | 0.94 | active |
| Cela1 | 3 | normal viability with and without drug | 1 | 1.02 | 0.98 | inactive |
| Cela1 | 4 | low viability with and without drug | 0.4 | 0.69 | 0.58 | inactive |

Continued, starting with the last 4 of the part before.
| gene symbol | siRNA no. | combined effect class | viability with doxorubicin, vs NT1 | viability ratio, doxorubicin over no drug | viability without drug, vs NT1 | Call |
| --- | --- | --- | --- | --- | --- | --- |
| Cela1 | 1 | low viability only with doxorubicin; normal without drug | 0.34 | 0.43 | 0.79 | active |
| Cela1 | 2 | low viability only with doxorubicin; normal without drug | 0.68 | 0.72 | 0.94 | active |
| Cela1 | 3 | normal viability with and without drug | 1 | 1.02 | 0.98 | inactive |
| Cela1 | 4 | low viability with and without drug | 0.4 | 0.69 | 0.58 | inactive |
| Unc5d | 1 | normal viability with and without drug | 1 | 1.02 | 0.98 | inactive |
| Unc5d | 2 | normal viability with and without drug | 0.82 | 0.86 | 0.95 | inactive |
| Unc5d | 3 | normal viability with and without drug | 1.07 | 0.99 | 1.08 | inactive |
| Unc5d | 4 | normal viability with and without drug | 1 | 1.08 | 0.93 | inactive |
| Vcp | 1 | low viability only with doxorubicin; normal without drug | 0.69 | 0.77 | 0.9 | active |
| Vcp | 2 | normal viability with and without drug | 0.74 | 0.82 | 0.9 | inactive |
| Vcp | 3 | low viability with and without drug | 0.34 | 0.54 | 0.63 | inactive |
| Vcp | 4 | low viability only with doxorubicin; normal without drug | 0.36 | 0.46 | 0.78 | active |
| Dhx15 | 1 | normal viability with and without drug | 0.95 | 1.02 | 0.93 | inactive |
| Dhx15 | 2 | normal viability with and without drug | 0.96 | 1.04 | 0.92 | inactive |
| Dhx15 | 3 | normal viability with and without drug | 0.85 | 0.86 | 0.99 | inactive |
| Dhx15 | 4 | normal viability with and without drug | 0.76 | 0.8 | 0.95 | inactive |
| Rps5 | 1 | low viability with and without drug | 0.22 | 0.76 | 0.29 | inactive |
| Rps5 | 2 | low viability with and without drug | 0.29 | 0.97 | 0.3 | inactive |
| Rps5 | 3 | low viability with and without drug | 0.26 | 0.87 | 0.3 | inactive |
| Rps5 | 4 | low viability with and without drug | 0.24 | 0.52 | 0.46 | inactive |
| Smc1a | 1 | normal viability with and without drug | 0.78 | 0.91 | 0.86 | inactive |
| Smc1a | 2 | low viability only with doxorubicin; normal without drug | 0.64 | 0.77 | 0.83 | active |
| Smc1a | 3 | low viability only with doxorubicin; normal without drug | 0.61 | 0.69 | 0.88 | active |
| Smc1a | 4 | normal viability with and without drug | 0.84 | 0.97 | 0.87 | inactive |
| Pex11g | 1 | normal viability with and without drug | 0.86 | 0.81 | 1.06 | inactive |
| Pex11g | 2 | normal viability with and without drug | 0.92 | 0.96 | 0.96 | inactive |
| Pex11g | 3 | normal viability with and without drug | 1.08 | 1.1 | 0.98 | inactive |
| Pex11g | 4 | normal viability with and without drug | 0.96 | 1.07 | 0.9 | inactive |
| Ankle2 | 1 | normal viability with and without drug | 1.08 | 1.13 | 0.96 | inactive |
| Ankle2 | 2 | normal viability with and without drug | 0.84 | 0.82 | 1.02 | inactive |
| Ankle2 | 3 | low viability only with doxorubicin; normal without drug | 0.7 | 0.81 | 0.86 | active |
| Ankle2 | 4 | low viability only with doxorubicin; normal without drug | 0.5 | 0.67 | 0.75 | active |
